{"source": "PubChem BioAssay AID1259327 (Drosophila RNAi Screening Center, 2017)", "test": "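Knock-downs altering cellular ATP with no metal added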", "cell system": "Drosophila S2R+ cells", "reagent": "long dsRNA against Drosophila genes", "duration": "5 days (water added on day 4, read one day later)", "challenge": "water added as vehicle, no metal, one day before read-out", "measurement": "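Luciferase ATP signal per well, normalised to plate mean, duplicate average converted to z-score across plates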", "reading the numbers": "ATP z-score: higher = more total ATP than typical wells; ATP luminescence: higher = more total ATP", "call rule": "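Called active when the ATP z-score exceeds 1.5 or falls below -1.5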", "meaning of the calls": "active = hit: ATP up or down; inactive = no clear ATP change", "note": "The deposit covers about 3,100 reagents; below is an unselected part. Over the whole deposit, 378 (12%) were called active. 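Hits include both directions; z-score sign shows ATP rise or fall; raw luminescence values are not plate-normalised.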 Reagents against one gene are numbered here. Not stated in the record: the amount of reagent."}
{"gene": "Vamp7", "reagent": 1, "ATP z-score, duplicate mean": -1.49, "ATP luminescence, replicate 1 (RLU)": 4.99e5, "ATP luminescence, replicate 2 (RLU)": 4.70e5, "call": "inactive"}
{"gene": "CG31729", "reagent": 1, "ATP z-score, duplicate mean": -0.157, "ATP luminescence, replicate 1 (RLU)": 4.43e5, "ATP luminescence, replicate 2 (RLU)": 4.95e5, "call": "inactive"}
{"gene": "CG31729", "reagent": 2, "ATP z-score, duplicate mean": 0.129, "ATP luminescence, replicate 1 (RLU)": 7.36e5, "ATP luminescence, replicate 2 (RLU)": 7.44e5, "call": "inactive"}
{"gene": "CG31729", "reagent": 3, "ATP z-score, duplicate mean": 0.505, "ATP luminescence, replicate 1 (RLU)": 9.39e5, "ATP luminescence, replicate 2 (RLU)": 8.87e5, "call": "inactive"}
{"gene": "Best1", "reagent": 1, "ATP z-score, duplicate mean": -0.35, "ATP luminescence, replicate 1 (RLU)": 8.96e5, "ATP luminescence, replicate 2 (RLU)": 9.27e5, "call": "inactive"}
{"gene": "Best1", "reagent": 2, "ATP z-score, duplicate mean": -0.32, "ATP luminescence, replicate 1 (RLU)": 4.38e5, "ATP luminescence, replicate 2 (RLU)": 4.49e5, "call": "inactive"}
{"gene": "GluRIIB", "reagent": 1, "ATP z-score, duplicate mean": -0.652, "ATP luminescence, replicate 1 (RLU)": 6.74e5, "ATP luminescence, replicate 2 (RLU)": 6.40e5, "call": "inactive"}
{"gene": "GluRIIB", "reagent": 2, "ATP z-score, duplicate mean": 2.3, "ATP luminescence, replicate 1 (RLU)": 6.46e5, "ATP luminescence, replicate 2 (RLU)": 5.96e5, "call": "active"}

Records listed so far whose target name starts with B or b:
{"gene": "Best1", "reagent": 1, "ATP z-score, duplicate mean": -0.35, "ATP luminescence, replicate 1 (RLU)": 8.96e5, "ATP luminescence, replicate 2 (RLU)": 9.27e5, "call": "inactive"}
{"gene": "Best1", "reagent": 2, "ATP z-score, duplicate mean": -0.32, "ATP luminescence, replicate 1 (RLU)": 4.38e5, "ATP luminescence, replicate 2 (RLU)": 4.49e5, "call": "inactive"}

Further entries:
{"gene": "Ndc1", "reagent": 1, "ATP z-score, duplicate mean": -0.0633, "ATP luminescence, replicate 1 (RLU)": 7.22e5, "ATP luminescence, replicate 2 (RLU)": 6.77e5, "call": "inactive"}
{"gene": "Ndc1", "reagent": 2, "ATP z-score, duplicate mean": 1.09, "ATP luminescence, replicate 1 (RLU)": 6.23e5, "ATP luminescence, replicate 2 (RLU)": 4.33e5, "call": "inactive"}
{"gene": "CG9826", "reagent": 1, "ATP z-score, duplicate mean": 0.878, "ATP luminescence, replicate 1 (RLU)": 8.02e5, "ATP luminescence, replicate 2 (RLU)": 8.37e5, "call": "inactive"}
{"gene": "CG8008", "reagent": 1, "ATP z-score, duplicate mean": -0.0286, "ATP luminescence, replicate 1 (RLU)": 6.95e5, "ATP luminescence, replicate 2 (RLU)": 7.62e5, "call": "inactive"}
{"gene": "CG8008", "reagent": 2, "ATP z-score, duplicate mean": -0.683, "ATP luminescence, replicate 1 (RLU)": 4.48e5, "ATP luminescence, replicate 2 (RLU)": 3.69e5, "call": "inactive"}
{"gene": "Ptpmeg2", "reagent": 1, "ATP z-score, duplicate mean": -0.435, "ATP luminescence, replicate 1 (RLU)": 6.05e5, "ATP luminescence, replicate 2 (RLU)": 6.00e5, "call": "inactive"}
{"gene": "Ptpmeg2", "reagent": 2, "ATP z-score, duplicate mean": 0.256, "ATP luminescence, replicate 1 (RLU)": 5.07e5, "ATP luminescence, replicate 2 (RLU)": 6.97e5, "call": "inactive"}
{"gene": "Ptpmeg2", "reagent": 3, "ATP z-score, duplicate mean": -0.676, "ATP luminescence, replicate 1 (RLU)": 8.83e5, "ATP luminescence, replicate 2 (RLU)": 1.08e6, "call": "inactive"}
{"gene": "Orct", "reagent": 1, "ATP z-score, duplicate mean": 0.837, "ATP luminescence, replicate 1 (RLU)": 8.02e5, "ATP luminescence, replicate 2 (RLU)": 7.82e5, "call": "inactive"}
{"gene": "Orct", "reagent": 2, "ATP z-score, duplicate mean": -0.11, "ATP luminescence, replicate 1 (RLU)": 7.04e5, "ATP luminescence, replicate 2 (RLU)": 9.70e5, "call": "inactive"}
{"gene": "nAChRalpha6", "reagent": 1, "ATP z-score, duplicate mean": 1.05, "ATP luminescence, replicate 1 (RLU)": 8.95e5, "ATP luminescence, replicate 2 (RLU)": 8.17e5, "call": "inactive"}
{"gene": "nAChRalpha6", "reagent": 2, "ATP z-score, duplicate mean": -0.198, "ATP luminescence, replicate 1 (RLU)": 4.36e5, "ATP luminescence, replicate 2 (RLU)": 4.96e5, "call": "inactive"}
{"gene": "CG9702", "reagent": 1, "ATP z-score, duplicate mean": 2.15, "ATP luminescence, replicate 1 (RLU)": 8.95e5, "ATP luminescence, replicate 2 (RLU)": 7.48e5, "call": "active"}
{"gene": "otk2", "reagent": 1, "ATP z-score, duplicate mean": -0.0623, "ATP luminescence, replicate 1 (RLU)": 5.48e5, "ATP luminescence, replicate 2 (RLU)": 6.80e5, "call": "inactive"}
{"gene": "MFS10", "reagent": 1, "ATP z-score, duplicate mean": -1.22, "ATP luminescence, replicate 1 (RLU)": 5.31e5, "ATP luminescence, replicate 2 (RLU)": 6.28e5, "call": "inactive"}
{"gene": "MFS10", "reagent": 2, "ATP z-score, duplicate mean": 0.228, "ATP luminescence, replicate 1 (RLU)": 1.06e6, "ATP luminescence, replicate 2 (RLU)": 1.09e6, "call": "inactive"}
